In this experiment the target is Nucleophosmin 1 (mouse (endogenous in MNK3)) (UniProt Q61937). In words: affinity purification with mass spectrometry; NPM1 immunoprecipitated from MNK3 cells with or without stimulation; SDS-PAGE, silver stain; band of ~70 kDa enriched in stimulated cells excised and identified by MS (Q Exactive, MASCOT).

Protein sequences, listed by entry. Tags and fused reporters are not part of them.
UniProt Q61937: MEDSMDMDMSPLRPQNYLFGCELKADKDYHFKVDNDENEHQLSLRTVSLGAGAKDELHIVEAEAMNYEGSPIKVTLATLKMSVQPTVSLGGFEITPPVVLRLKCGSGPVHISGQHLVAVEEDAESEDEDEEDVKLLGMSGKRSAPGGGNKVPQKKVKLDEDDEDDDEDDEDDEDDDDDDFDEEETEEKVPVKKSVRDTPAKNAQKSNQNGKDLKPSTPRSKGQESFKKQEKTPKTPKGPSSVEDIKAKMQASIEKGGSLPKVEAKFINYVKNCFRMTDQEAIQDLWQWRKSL
UniProt Q04207: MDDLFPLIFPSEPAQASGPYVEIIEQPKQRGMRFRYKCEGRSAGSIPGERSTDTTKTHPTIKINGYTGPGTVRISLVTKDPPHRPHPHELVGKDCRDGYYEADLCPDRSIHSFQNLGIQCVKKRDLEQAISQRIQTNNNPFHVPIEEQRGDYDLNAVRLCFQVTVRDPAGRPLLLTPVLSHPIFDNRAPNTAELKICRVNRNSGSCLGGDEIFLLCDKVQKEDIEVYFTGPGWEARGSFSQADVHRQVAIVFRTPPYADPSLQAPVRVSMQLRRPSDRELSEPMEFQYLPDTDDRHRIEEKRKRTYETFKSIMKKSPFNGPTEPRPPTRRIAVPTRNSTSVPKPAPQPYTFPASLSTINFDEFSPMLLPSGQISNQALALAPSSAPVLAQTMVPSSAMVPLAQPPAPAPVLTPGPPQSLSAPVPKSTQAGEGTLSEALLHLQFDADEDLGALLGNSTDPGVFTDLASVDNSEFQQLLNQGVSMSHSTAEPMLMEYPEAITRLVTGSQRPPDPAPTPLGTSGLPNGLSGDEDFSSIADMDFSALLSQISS

Results are given in words; binding and its absence hold for the method and conditions named. In cells and extracts the contact can be indirect. Here binding means that the protein was enriched with, or labelled near, the bait; the list need not be complete.

Turning to “p65, a component of the nuclear factor kappa B (NF-κB) transcription factor (from UniProt Q04207 1-549)”, the binding entry is reported as “binds”.

These data come from paper PMC11362010.
